Results taken from the supplement of paper PMC11732987, “Enantioselective OTUD7B fragment discovery through chemoproteomics screening and high-throughput optimisation” (Communications Chemistry, 2025).
The list shows a part of the results. The data scatter; read single values as rough.

Sequences of proteins named here, by UniProt entry; tags and fusion partners are left off. A change or cut given only in a name is not applied to a line headed by its entry. Residues count along the entry.
UniProt O43149: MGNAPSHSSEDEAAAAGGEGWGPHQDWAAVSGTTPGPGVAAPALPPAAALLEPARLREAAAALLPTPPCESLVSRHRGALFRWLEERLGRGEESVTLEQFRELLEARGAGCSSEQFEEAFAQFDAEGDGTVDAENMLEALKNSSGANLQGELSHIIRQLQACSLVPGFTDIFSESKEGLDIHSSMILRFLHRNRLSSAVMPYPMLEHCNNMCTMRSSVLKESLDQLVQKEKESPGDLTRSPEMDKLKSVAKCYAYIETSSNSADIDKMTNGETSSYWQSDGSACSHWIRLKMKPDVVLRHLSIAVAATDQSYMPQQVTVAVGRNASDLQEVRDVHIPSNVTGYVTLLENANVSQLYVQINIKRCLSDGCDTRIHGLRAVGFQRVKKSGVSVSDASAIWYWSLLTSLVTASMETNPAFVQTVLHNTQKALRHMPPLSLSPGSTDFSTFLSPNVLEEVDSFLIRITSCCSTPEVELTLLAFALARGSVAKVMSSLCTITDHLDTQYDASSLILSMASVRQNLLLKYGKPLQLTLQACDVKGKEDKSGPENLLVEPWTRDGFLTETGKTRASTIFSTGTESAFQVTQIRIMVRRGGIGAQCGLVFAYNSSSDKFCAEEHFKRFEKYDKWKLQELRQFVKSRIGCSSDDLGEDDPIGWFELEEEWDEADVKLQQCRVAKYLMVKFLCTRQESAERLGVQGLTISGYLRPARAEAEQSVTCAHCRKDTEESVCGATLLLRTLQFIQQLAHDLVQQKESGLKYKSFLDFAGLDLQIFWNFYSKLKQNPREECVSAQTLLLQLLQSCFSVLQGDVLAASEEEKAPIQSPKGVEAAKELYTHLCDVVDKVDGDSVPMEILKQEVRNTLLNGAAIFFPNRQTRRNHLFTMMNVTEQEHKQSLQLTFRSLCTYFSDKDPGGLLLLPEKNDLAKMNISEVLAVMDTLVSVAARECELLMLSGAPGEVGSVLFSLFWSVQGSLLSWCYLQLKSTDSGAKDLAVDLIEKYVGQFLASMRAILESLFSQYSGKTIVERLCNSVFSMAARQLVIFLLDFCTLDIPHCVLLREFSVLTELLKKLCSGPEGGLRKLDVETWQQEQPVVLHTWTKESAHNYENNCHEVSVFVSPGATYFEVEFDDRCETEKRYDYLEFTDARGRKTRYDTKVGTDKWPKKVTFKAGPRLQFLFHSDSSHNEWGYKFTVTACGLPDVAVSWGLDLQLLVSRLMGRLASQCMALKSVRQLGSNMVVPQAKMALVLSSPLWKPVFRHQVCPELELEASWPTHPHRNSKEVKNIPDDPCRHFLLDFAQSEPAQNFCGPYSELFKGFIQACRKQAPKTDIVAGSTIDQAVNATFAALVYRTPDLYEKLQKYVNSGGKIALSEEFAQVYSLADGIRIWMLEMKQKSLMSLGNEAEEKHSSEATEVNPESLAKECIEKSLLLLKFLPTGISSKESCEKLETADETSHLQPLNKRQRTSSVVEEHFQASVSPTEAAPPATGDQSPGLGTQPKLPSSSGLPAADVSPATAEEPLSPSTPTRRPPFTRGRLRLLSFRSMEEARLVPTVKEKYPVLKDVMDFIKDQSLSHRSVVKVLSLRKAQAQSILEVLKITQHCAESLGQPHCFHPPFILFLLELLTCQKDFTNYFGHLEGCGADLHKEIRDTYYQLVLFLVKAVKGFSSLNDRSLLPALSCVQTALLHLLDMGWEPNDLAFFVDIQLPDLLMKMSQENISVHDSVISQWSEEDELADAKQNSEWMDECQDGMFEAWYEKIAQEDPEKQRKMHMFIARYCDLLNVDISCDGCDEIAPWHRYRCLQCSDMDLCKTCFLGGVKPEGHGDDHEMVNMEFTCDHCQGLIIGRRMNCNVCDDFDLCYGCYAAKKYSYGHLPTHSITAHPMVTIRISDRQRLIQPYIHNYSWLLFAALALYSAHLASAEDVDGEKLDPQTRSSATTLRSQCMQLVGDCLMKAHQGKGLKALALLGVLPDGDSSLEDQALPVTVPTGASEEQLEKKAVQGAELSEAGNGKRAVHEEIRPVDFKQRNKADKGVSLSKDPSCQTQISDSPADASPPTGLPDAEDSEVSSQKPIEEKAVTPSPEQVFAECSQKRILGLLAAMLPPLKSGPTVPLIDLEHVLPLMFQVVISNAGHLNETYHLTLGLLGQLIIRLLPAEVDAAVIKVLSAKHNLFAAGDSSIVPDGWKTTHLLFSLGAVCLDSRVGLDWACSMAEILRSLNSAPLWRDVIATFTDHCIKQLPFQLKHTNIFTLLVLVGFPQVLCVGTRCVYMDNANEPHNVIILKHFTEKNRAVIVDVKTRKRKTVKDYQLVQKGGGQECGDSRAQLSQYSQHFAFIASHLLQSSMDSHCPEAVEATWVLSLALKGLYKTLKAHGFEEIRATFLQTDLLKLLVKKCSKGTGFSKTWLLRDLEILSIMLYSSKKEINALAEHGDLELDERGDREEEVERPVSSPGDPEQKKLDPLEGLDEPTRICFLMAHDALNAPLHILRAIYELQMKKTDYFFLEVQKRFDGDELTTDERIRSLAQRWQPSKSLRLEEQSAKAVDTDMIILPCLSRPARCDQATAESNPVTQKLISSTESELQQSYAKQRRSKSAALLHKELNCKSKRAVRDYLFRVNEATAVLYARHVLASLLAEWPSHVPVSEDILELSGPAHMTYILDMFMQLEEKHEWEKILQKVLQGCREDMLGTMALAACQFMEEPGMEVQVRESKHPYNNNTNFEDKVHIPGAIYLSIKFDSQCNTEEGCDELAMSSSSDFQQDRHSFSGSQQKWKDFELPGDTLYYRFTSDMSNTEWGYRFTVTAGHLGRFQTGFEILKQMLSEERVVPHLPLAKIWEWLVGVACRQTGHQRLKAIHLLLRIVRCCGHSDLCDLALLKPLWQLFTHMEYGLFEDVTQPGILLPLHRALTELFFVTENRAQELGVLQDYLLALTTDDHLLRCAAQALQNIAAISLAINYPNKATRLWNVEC
UniProt Q9UHR6: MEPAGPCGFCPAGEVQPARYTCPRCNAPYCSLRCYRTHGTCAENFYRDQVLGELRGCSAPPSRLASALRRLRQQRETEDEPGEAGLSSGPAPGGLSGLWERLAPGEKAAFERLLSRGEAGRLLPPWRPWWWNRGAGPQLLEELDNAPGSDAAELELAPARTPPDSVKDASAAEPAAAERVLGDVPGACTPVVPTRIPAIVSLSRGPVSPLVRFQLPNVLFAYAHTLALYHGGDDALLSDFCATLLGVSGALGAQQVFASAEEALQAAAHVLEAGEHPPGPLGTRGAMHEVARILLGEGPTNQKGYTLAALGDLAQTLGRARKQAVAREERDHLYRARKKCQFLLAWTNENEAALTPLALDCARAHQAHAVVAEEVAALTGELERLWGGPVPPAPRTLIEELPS
UniProt Q6NZY4: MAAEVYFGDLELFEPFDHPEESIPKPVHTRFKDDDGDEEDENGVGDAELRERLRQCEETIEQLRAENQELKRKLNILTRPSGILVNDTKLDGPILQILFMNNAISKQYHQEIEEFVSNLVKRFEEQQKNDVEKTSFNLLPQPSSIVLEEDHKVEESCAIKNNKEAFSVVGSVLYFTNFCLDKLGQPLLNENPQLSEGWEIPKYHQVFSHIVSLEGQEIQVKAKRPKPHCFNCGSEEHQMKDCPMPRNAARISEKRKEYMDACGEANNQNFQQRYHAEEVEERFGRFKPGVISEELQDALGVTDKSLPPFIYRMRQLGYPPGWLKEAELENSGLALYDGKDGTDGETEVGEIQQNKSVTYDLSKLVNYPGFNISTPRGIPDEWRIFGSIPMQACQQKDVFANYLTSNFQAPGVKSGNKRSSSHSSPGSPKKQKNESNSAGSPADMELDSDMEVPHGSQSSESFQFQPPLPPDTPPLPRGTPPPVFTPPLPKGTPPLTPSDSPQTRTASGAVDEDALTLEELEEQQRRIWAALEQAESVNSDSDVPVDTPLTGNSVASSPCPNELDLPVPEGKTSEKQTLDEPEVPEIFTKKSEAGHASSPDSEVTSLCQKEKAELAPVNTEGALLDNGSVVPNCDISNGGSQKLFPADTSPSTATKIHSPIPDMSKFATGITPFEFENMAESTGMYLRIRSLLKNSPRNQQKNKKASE
UniProt A7E2V4, 1084-1110: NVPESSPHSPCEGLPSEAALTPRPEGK
UniProt O95218: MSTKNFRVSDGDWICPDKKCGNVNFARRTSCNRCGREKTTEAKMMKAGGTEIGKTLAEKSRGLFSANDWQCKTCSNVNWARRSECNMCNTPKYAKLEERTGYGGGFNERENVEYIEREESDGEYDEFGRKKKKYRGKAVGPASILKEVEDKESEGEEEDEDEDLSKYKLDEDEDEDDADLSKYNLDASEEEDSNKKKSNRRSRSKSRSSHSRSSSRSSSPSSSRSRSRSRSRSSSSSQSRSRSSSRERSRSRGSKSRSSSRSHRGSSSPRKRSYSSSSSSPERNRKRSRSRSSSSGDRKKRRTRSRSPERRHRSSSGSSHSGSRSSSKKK
UniProt P17098: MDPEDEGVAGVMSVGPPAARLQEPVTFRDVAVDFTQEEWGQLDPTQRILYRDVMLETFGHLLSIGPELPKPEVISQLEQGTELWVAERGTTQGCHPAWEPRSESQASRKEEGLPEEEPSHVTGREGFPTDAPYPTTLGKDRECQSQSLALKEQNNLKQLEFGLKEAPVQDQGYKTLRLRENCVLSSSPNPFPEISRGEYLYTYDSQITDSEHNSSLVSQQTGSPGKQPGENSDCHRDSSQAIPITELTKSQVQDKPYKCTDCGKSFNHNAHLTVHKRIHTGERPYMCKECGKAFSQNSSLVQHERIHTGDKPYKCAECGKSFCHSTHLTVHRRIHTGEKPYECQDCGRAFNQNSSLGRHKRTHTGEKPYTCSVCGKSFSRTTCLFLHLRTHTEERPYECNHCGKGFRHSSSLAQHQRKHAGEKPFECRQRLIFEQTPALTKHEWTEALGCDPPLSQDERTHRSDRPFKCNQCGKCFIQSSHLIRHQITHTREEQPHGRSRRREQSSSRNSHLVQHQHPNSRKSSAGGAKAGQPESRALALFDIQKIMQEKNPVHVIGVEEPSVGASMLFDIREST
UniProt Q5BKZ1: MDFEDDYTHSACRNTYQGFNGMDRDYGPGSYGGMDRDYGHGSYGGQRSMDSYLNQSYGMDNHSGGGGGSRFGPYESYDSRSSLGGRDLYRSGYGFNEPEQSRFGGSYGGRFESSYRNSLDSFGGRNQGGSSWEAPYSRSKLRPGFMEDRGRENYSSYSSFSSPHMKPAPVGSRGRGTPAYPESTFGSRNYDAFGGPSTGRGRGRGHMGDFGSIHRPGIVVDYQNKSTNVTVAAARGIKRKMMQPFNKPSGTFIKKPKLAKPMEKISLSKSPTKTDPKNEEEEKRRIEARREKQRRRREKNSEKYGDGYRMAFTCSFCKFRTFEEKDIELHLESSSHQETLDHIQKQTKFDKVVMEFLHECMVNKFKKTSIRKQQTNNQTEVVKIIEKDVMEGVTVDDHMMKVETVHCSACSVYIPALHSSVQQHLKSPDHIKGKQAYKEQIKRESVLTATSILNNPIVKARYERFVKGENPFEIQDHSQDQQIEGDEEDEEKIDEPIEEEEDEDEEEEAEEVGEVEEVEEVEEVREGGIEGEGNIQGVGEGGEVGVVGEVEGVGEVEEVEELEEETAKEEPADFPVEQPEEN
UniProt Q9UQR1: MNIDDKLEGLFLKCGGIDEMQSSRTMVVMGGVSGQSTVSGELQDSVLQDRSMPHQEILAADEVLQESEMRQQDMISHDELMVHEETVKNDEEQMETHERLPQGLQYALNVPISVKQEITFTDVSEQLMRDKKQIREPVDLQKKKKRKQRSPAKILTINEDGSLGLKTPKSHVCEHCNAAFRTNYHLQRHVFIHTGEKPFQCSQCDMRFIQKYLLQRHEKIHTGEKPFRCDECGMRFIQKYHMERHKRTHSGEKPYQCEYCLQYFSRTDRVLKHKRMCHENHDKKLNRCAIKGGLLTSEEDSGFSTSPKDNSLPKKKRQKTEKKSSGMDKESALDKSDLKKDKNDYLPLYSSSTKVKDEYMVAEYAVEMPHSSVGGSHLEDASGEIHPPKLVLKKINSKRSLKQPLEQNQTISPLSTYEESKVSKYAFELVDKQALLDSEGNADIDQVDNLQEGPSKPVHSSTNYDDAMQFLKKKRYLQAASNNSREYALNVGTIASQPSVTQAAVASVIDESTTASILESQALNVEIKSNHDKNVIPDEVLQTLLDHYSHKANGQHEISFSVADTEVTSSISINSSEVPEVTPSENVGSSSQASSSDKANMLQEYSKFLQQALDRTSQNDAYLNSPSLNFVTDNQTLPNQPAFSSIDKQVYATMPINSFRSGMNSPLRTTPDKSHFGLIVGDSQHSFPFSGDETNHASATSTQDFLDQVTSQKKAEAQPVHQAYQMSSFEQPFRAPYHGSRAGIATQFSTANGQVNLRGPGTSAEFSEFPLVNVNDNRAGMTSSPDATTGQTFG

Columns and labels:
[1] = compound: ClCC(=O)N[C@@H]1CCCc2ccccc12; experiment: log2 mean competition ratio of IA-DTB cysteine labelling (DMSO/compound) (log2 ratio); higher = stronger cysteine engagement by compound; settings: treatment time: 4 h, cell line lysate: HEK293T
Procedure: (§1)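 IA-DTB competitive cysteine chemoproteomics in HEK293T RIPA lysate. Lysates were treated with compound 29 or 30 at 50 or 200 µM for 4 h, then IA-DTB (500 µM, 1 h), trypsin-digested, NeutrAvidin-enriched and analysed by diaPASEF. Competition ratio = intensity DMSO / intensity compound (n=4 treated, n=64 DMSO); binding: mean log2 CR ≥ 1 and p ≤ 0.05 plus QC filters. Target is the cysteine site.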

[2] = compound: ClCC(=O)N[C@H]1CCCc2ccccc12; experiment: as above; settings: treatment time: 4 h, cell line lysate: HEK293T
Procedure: as §1

| Target | log2 mean competition ratio ([1]; 50 µM) | log2 mean competition ratio ([1]; 200 µM) | log2 mean competition ratio ([2]; 50 µM) | log2 mean competition ratio ([2]; 200 µM) |
| --- | --- | --- | --- | --- |
| ZNF318 C645 (UniProt Q5VUA4) | 0.233 | 0.194 | 0.296 | -0.245 |
| ZFYVE26 C66 (UniProt Q68DK2) | 0.0401 | 0.11 | -0.277 | 0.226 |
| ZDBF2 C1597 | 0.034 | 0.292 | 0.0294 | 0.165 |
| ZMYM1 C662 (UniProt Q5SVZ6) | -0.105 | -0.128 | -0.11 | -0.0116 |
| ZMYM4 C711 (UniProt Q5VZL5) | 0.328 | 0.0841 | 0.123 | 0.0711 |
| ZNF7 C452 | 0.0213 | -0.0441 | -0.126 | 0.493 |
| ZKSCAN2 C109 | -0.647 | -0.141 | -0.474 | -0.0739 |
| ZFP91 C520 (UniProt Q96JP5) | 0.0865 | 0.191 | -0.139 | 0.152 |
| ZZEF1 C2553 (UniProt O43149) | -0.00439 | 0.0652 | -0.106 | 0.0453 |
| ZNRD2 C152 | 0.1 | -0.122 | 1.03 | -0.0942 |
| ZNHIT2 C57 (UniProt Q9UHR6) | 0.169 | -0.0286 | 0.0927 | -0.091 |
| ZCCHC8 C262 (UniProt Q6NZY4) | -0.364 | -0.0121 | -0.356 | -0.047 |
| ZC3H7B C138 (UniProt Q9UGR2) | -0.312 | -0.00641 | -0.123 | 0.0081 |
| ZC3H7B C576 (UniProt Q9UGR2) | 0.116 | -0.121 | 0.411 | -0.0061 |
| ZDBF2 C1996 | 0.00702 | 0.247 | -0.396 | 0.0195 |
| ZNF280C C94 (UniProt Q8ND82) | 0.0933 | 0.152 | -0.266 | -0.113 |
| ZSWIM8 C1094 (UniProt A7E2V4) | -0.352 | -0.312 | -0.562 | -0.397 |
| ZNF687 C339 (UniProt Q8N1G0) | -0.0127 | 0.0091 | 0.0471 | -0.00403 |
| ZMYM1 C1098 (UniProt Q5SVZ6) | 0.18 | 0.195 | -0.255 | -0.0065 |
| ZRANB2 C15 (UniProt O95218) | -0.0996 | 0.361 | 0.187 | 0.191 |
| ZNF503 C219 | -0.0294 | 0.556 | 0.145 | 0.536 |
| ZNF8 C427 (UniProt P17098) | -0.0398 | 0.158 | 0.163 | -0.191 |
| ZFC3H1 C241 (UniProt O60293) | -0.449 | 0.18 | -0.421 | 0.0715 |

| Target | log2 mean competition ratio ([1]; 50 µM) | log2 mean competition ratio ([1]; 200 µM) | log2 mean competition ratio ([2]; 50 µM) | log2 mean competition ratio ([2]; 200 µM) |
| --- | --- | --- | --- | --- |
| ZNF562 C17 (UniProt Q6V9R5) | -0.0882 | -0.411 | 0.727 | -0.0841 |
| ZSWIM8 C445 (UniProt A7E2V4) | 0.163 | 0.16 | -0.0853 | 0.291 |
| ZNF550 C354 | -0.0114 | 0.256 | 0.136 | 0.377 |
| ZNF446 C164 | 0.283 | 0.00498 | -0.236 | 0.0856 |
| ZNF330 C186 (UniProt Q9Y3S2) | 0.0364 | 0.147 | -0.102 | -0.027 |
| ZRANB3 C587 | -0.238 | -0.218 | -0.173 | -0.21 |
| ZNF326 C360 (UniProt Q5BKZ1) | -0.182 | -0.141 | 0.158 | -0.22 |
| ZDHHC13 C10 (UniProt Q8IUH4) | -0.257 | 0.233 | -0.183 | 0.482 |
| ZGRF1 C1374 (UniProt Q86YA3) | -0.213 | -0.095 | -0.192 | -0.0778 |
| ZDBF2 C410 | -0.275 | 0.149 | 0.224 | 0.0373 |
| ZFC3H1 C1068 (UniProt O60293) | -0.0431 | 0.0601 | -0.19 | 0.112 |
| ZC3H7A C894 (UniProt Q8IWR0) | 0.279 | 0.0262 | -0.185 | -0.0897 |
| ZNF106 C1069 (UniProt Q9H2Y7) | 0.248 | 0.115 | 0.422 | 0.0818 |
| ZC3HC1 C406 (UniProt Q86WB0) | 0.15 | 0.0935 | -0.0472 | 0.16 |
| ZFYVE26 C2428 (UniProt Q68DK2) | -0.127 | -0.0195 | 0.101 | 0.00642 |
| ZNF148 C14 (UniProt Q9UQR1) | -0.142 | -0.0175 | -0.0283 | -0.0316 |
| ZSCAN30 C171 | -0.105 | 0.0191 | 0.11 | 0.017 |
| ZFAND3 C35 (UniProt Q9H8U3) | -0.0604 | -0.0308 | 0.062 | 0.0777 |
| ZNF516 C875 (UniProt Q92618) | 0.126 | 0.107 | 0.256 | 0.0521 |
| ZNF398 C275 | -0.241 | -0.315 | -0.0164 | -0.167 |
| ZFP36L1 C173 | -0.23 | 0.0226 | -0.265 | -0.271 |
| ZNF318 C242 (UniProt Q5VUA4) | 0.189 | 0.296 | -0.285 | 0.124 |
| ZNF669 C378 (UniProt Q96BR6) | -0.406 | -0.198 | -0.327 | 0.0832 |

Some of the entries so far, in CSV form.
Target,log2 mean competition ratio ([1]; 50 µM),log2 mean competition ratio ([1]; 200 µM),log2 mean competition ratio ([2]; 50 µM),log2 mean competition ratio ([2]; 200 µM)
ZNF446 C164,0.283,0.00498,-0.236,0.0856
ZSCAN30 C171,-0.105,0.0191,0.11,0.017
